Results from patent US7479377B2, “Genetic construct intracellular monitoring system” (DiscoveRx Corporation, priority 2001, dated 2009).
For at least one compound, name, drawing or mass did not settle the structure.

Molecular target: T1, PPARγ (Homo sapiens, UniProt P37231)
T1 construct: PL / ED (55-mer beta-galactosidase enzyme donor fragment); expressed in transfected cells; host or cells: NIH3T3, ECV304 and HeLa (A8); NIH3T3 or ECV304 (A9); transient, pcDNA3.1-PL-PPAR
T1 sequence (P37231 1-477 isoform P37231-2): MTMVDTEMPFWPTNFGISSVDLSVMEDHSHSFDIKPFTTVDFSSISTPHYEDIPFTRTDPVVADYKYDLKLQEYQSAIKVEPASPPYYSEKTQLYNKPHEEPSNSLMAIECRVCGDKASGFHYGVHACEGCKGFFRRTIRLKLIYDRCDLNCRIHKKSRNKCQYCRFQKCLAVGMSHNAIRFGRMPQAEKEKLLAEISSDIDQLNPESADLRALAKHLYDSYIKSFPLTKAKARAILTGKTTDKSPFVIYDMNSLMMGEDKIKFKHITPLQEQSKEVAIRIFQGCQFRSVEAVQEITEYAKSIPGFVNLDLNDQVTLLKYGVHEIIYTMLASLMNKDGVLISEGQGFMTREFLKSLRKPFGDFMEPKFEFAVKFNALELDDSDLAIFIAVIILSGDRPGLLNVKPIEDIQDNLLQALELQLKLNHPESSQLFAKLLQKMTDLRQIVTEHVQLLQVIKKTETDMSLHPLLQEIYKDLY
Assay: Nuclear localization of PL-PPAR protein (EA and X-Gal staining, microscopy)
Type: cell-based
Details: 10 uM ciglitazone, 2 hr

For CC1(COc2ccc(CC3SC(=O)NC3=O)cc2)CCCCC1 (centres unmarked) [CTZ, ciglitazone], the “Cellular localization of PL-PPAR protein” value (ECV304 cells, FIG. 13B) was “predominantly localized to the nucleus” and the “Cellular localization of PL-PPAR protein” value (NIH3T3 cells, FIG. 13A) was “predominantly localized to the nucleus”.
